# Some of the results follow.
# Protein sequences, listed by entry. Tags and fused reporters are not part of them. Lines headed by an entry give the natural chain unless they say otherwise; changes in a name come on top.
# UniProt P54760: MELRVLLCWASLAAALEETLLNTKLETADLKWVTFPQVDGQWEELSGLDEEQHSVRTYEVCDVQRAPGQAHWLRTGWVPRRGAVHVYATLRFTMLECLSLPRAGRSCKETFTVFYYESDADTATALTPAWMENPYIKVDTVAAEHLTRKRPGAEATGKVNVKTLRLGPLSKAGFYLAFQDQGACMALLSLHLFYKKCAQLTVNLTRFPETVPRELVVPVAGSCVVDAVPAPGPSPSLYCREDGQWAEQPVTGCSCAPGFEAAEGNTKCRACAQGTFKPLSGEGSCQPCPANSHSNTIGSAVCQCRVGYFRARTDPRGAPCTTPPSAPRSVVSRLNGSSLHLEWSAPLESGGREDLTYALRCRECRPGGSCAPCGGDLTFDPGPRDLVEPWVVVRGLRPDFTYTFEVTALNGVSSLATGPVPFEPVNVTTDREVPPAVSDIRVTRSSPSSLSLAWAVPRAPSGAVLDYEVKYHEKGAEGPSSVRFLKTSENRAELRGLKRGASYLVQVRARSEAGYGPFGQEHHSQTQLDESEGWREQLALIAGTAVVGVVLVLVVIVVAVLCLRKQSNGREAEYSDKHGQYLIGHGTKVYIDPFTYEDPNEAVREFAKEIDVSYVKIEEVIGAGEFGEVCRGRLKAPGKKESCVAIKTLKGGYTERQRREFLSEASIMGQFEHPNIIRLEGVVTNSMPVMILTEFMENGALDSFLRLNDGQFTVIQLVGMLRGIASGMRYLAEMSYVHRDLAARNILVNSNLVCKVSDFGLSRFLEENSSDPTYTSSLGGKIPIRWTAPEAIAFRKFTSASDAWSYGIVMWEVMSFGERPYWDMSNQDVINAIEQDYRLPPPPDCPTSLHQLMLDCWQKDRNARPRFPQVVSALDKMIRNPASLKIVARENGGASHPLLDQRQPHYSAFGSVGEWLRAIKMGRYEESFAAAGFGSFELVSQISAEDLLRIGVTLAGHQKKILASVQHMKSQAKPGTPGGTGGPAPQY
# UniProt P25116: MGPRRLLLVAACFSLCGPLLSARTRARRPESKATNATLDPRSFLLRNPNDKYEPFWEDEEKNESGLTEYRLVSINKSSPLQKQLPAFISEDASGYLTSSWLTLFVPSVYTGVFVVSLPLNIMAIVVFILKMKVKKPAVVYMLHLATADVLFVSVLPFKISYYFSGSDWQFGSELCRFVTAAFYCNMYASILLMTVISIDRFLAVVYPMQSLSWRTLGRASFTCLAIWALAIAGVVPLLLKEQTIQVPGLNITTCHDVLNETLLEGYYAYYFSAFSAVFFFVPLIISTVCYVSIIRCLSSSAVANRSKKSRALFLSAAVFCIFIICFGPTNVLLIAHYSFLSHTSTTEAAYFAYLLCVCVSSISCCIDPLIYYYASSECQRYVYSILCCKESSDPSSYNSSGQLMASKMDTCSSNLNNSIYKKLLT
# UniProt Q15910, whole entry, looked up: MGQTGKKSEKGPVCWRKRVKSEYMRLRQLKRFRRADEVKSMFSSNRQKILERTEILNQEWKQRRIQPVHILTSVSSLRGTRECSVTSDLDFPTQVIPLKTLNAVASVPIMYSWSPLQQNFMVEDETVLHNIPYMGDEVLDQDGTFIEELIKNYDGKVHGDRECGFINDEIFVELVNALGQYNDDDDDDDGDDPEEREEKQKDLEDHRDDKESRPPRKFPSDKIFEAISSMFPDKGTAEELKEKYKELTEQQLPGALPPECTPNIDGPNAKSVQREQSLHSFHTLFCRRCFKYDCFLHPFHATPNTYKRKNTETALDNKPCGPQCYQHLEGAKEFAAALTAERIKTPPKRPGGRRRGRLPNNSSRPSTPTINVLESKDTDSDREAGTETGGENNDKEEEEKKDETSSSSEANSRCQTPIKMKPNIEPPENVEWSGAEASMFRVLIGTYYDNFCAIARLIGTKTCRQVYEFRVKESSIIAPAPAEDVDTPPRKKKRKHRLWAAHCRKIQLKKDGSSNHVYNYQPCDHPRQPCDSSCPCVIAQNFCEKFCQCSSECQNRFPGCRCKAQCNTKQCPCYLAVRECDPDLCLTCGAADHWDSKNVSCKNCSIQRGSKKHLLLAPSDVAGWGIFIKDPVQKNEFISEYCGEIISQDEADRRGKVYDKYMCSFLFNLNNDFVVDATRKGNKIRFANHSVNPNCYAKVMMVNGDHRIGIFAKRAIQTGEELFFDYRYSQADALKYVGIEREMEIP
# UniProt O60447: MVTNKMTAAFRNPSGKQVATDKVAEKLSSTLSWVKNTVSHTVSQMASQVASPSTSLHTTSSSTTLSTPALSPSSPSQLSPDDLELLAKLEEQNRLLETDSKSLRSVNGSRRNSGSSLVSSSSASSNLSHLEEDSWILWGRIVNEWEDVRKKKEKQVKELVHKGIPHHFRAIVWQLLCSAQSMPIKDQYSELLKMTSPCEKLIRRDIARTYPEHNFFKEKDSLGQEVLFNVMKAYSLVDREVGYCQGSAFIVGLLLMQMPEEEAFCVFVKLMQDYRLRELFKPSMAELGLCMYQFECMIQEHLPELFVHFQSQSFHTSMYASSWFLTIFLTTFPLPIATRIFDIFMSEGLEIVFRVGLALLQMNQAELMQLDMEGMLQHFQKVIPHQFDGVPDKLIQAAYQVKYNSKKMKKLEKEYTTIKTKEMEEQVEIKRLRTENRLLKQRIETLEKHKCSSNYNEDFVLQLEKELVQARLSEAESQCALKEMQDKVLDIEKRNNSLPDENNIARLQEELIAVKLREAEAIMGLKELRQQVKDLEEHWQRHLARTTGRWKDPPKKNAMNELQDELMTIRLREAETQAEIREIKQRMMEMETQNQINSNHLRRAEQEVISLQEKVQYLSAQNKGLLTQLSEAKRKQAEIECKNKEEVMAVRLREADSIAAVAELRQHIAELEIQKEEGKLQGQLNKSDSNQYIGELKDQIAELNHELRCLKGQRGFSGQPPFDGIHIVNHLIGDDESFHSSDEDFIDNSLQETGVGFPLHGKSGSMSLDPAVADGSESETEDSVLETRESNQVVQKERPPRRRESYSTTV
# UniProt Q5T8I3: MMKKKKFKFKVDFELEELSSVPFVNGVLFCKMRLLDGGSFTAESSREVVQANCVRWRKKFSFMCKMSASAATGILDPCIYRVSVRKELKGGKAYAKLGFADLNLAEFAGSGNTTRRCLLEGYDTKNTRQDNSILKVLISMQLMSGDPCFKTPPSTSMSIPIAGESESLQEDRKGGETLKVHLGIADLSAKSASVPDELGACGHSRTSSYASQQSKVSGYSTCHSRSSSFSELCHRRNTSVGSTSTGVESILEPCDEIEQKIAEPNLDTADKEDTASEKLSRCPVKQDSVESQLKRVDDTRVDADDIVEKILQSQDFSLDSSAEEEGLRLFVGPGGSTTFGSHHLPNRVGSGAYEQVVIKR
# UniProt Q5VUB5: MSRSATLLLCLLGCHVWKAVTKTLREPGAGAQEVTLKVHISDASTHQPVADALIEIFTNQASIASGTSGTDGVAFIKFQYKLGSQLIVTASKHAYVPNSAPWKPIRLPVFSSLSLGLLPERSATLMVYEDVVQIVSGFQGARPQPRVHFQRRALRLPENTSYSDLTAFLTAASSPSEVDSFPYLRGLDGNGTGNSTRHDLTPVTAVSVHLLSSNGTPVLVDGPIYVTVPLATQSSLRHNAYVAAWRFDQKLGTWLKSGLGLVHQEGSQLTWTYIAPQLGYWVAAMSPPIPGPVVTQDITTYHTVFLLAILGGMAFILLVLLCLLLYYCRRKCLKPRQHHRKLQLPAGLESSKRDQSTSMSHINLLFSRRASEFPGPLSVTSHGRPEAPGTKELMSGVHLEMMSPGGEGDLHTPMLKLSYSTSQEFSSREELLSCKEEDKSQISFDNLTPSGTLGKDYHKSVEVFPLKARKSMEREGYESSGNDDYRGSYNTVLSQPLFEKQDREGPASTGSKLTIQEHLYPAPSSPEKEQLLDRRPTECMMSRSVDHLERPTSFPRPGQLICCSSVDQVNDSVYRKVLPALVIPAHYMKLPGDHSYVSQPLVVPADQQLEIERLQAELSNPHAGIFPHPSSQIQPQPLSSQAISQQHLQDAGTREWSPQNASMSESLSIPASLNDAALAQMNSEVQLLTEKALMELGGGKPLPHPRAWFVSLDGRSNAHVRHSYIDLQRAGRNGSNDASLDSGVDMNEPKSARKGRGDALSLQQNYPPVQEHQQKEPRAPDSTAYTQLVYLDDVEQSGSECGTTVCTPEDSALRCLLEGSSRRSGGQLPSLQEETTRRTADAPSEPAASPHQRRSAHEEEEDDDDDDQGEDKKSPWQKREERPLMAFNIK
# UniProt Q9NVH0: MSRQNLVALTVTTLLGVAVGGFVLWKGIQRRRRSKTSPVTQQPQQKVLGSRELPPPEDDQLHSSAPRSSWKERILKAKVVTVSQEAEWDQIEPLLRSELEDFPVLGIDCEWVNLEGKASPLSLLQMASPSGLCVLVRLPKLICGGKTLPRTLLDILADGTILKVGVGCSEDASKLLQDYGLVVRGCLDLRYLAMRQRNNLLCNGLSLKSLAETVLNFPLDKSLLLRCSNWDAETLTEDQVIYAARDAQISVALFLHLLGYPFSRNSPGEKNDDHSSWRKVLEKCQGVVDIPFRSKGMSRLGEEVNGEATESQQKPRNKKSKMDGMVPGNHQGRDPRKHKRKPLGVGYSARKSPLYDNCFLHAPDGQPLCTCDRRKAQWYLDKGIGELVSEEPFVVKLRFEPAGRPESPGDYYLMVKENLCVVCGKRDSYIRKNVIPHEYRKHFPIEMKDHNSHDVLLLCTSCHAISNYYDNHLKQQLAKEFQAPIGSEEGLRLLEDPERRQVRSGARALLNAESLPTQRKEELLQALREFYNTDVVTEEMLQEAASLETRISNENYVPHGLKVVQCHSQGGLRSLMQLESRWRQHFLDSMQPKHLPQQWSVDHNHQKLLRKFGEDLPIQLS
# UniProt Q9BQ89: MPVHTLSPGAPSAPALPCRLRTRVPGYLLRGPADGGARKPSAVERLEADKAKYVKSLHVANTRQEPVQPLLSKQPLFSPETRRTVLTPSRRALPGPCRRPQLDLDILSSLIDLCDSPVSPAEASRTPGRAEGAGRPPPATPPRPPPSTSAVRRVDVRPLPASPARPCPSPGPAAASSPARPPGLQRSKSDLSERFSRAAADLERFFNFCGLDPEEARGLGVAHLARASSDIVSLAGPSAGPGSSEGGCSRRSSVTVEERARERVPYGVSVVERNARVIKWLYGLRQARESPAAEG
# UniProt Q8IWE2: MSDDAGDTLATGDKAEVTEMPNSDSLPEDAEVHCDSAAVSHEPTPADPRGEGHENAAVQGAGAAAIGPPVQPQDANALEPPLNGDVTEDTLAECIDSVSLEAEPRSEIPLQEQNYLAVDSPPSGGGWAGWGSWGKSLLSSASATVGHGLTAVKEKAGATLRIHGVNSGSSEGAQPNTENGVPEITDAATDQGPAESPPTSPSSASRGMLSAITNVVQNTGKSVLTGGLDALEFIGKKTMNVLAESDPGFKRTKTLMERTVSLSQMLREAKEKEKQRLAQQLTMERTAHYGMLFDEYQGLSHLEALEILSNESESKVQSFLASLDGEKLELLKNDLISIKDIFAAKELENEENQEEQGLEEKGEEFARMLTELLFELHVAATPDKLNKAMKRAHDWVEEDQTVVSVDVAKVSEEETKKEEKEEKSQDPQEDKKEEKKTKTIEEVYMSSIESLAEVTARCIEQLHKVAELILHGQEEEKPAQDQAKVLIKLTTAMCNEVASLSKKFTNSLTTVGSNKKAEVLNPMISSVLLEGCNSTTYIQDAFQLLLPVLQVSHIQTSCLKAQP
# UniProt Q9H8W3: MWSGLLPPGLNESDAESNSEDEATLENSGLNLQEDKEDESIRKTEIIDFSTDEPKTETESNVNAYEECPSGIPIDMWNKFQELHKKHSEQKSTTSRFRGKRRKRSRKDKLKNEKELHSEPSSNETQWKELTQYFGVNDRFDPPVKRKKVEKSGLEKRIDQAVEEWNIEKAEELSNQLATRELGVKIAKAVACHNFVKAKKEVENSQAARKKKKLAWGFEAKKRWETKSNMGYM
# UniProt Q9H098: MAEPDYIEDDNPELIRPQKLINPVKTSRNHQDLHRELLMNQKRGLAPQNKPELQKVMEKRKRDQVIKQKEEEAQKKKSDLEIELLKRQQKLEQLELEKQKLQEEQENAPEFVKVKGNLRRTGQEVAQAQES
# UniProt Q8IV48: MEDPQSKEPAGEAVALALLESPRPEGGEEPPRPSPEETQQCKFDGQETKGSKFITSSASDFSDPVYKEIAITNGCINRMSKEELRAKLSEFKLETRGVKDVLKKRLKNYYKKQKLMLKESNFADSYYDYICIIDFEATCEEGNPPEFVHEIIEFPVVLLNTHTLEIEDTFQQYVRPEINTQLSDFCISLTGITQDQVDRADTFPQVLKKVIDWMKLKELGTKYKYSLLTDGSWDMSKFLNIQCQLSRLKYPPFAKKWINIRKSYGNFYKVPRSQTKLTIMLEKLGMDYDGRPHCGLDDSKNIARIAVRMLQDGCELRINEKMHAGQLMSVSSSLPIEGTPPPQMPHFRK
# UniProt Q8TBP5: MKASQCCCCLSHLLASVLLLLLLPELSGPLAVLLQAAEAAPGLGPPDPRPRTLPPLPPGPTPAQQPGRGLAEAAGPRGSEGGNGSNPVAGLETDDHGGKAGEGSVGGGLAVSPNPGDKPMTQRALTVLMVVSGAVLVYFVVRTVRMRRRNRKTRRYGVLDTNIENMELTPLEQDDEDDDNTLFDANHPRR
# Compound: CC[C@@H]1C(=O)N(C)c2cnc(Nc3ccc(C(=O)N[C@H]4CC[C@H](N5CCN(CC6CC6)CC5)CC4)cc3OC)nc2N1C(C)C [volasertib]
# Assay: log2 fold change, soluble protein after heating vs DMSO (PISA); higher = thermal stabilisation; K562 cells, 10 uM, 30 min; active = over 0.2 and 3.5 SD of the protein, either way, in both replicates (recomputed)
# Method in brief: (§1)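 K562 cells at 2×10^6 cells/mL were exposed to 10 μM compound for 30 min, then aliquots were heated for 3 min across 48°C-58°C, pooled, and extracted in PBS containing 0.5% NP-40 at 4°C. The supernatant after 21,000xg for 90 min was taken as soluble protein and measured by TMTpro 16plex LC-MS/MS with channel sums equalised. Thermal stability is reported relative to control samples, with values from duplicates. Fold changes are given on a log2 scale.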
row,Target,log2 fold change
1,F2RL3 (UniProt Q96RI0),inactive: 0.076
2,EPHB4 (UniProt P54760),inactive: -0.302
3,F2R (UniProt P25116),inactive: -0.171
4,EZH2 isoform 2 (UniProt Q15910),inactive: -0.259
5,EVI5 isoform 2 (UniProt O60447),inactive: -0.651
6,ERCC1 isoform 3 (UniProt P07992),inactive: -0.147
7,FAM102B (UniProt Q5T8I3),inactive: -0.059
8,FAM171A1 (UniProt Q5VUB5),inactive: -0.026
9,EXD2 (UniProt Q9NVH0),inactive: -0.446
10,ERICH1 (UniProt Q86X53),inactive: 0.2

# Compound: CC[C@H](C)[C@@H](C(=O)N[C@@H]([C@@H](C)O)C(=O)N[C@@H](CC(C)C)C(=O)[C@]1(CO1)C)NC(=O)[C@H]([C@@H](C)CC)N(C)C(=O)C [epoxomicin]
# Assay: as above
# Method in brief: as §1
row,Target,log2 fold change
1,FAM110A (UniProt Q9BQ89),inactive: 0.533
2,EPS15L1 (UniProt M0QY01),inactive: -0.093
3,FAM114A1 (UniProt Q8IWE2),inactive: -0.049
4,FAM135A (UniProt Q9P2D6),inactive: -0.088
5,EPG5 (UniProt Q9HCE0),inactive: -0.084
6,FAM204A (UniProt Q9H8W3),inactive: -0.091
7,EZH2 isoform 2 (UniProt Q15910),inactive: 0.131
8,EPS8L1 (UniProt Q8TE68),inactive: 0.035
9,FAM102B (UniProt Q5T8I3),inactive: 0.066
10,FAM171A1 (UniProt Q5VUB5),inactive: 0.033
11,EXD2 (UniProt Q9NVH0),inactive: -0.048
12,ERF (UniProt P50548),inactive: 0.068
13,FAM107B isoform 2 (UniProt Q9H098),inactive: 0.033
14,EPB41L5 (UniProt Q9HCM4),inactive: 0.02
15,ERI1 (UniProt Q8IV48),inactive: -0.027
16,EPHX2 (UniProt E5RI53),inactive: -0.199

# Compound: CCn1c(C(=O)N(C2CC2)C2CC2)cc2c3c(ncn3C)c(Nc3cc(C)n(C)n3)nc21
# Assay: as above
# Method in brief: as §1
row,Target,log2 fold change
1,FAM114A1 (UniProt Q8IWE2),inactive: -0.105
2,FAM178B (UniProt Q8IXR5),inactive: -0.019
3,FAM204A (UniProt Q9H8W3),inactive: -0.011
4,EVI5 isoform 2 (UniProt O60447),inactive: 0.208
5,FAM171A2 (UniProt A8MVW0),inactive: 0.103
6,FAM171A1 (UniProt Q5VUB5),inactive: -0.087
7,EXD2 (UniProt Q9NVH0),inactive: 0.017
8,FADS2 (UniProt O95864),inactive: 0.159
9,EPB41L5 (UniProt Q9HCM4),inactive: 0.076

# Compound: CCn1cc(-c2ccnc3[nH]c(-c4cccc(CN(C)C)c4)cc23)c(-c2ccc(NC(=O)N(C)C)cc2)n1
# Assay: as above
# Method in brief: as §1
row,Target,log2 fold change
1,FAM110A (UniProt Q9BQ89),inactive: 0.175
2,FAM114A1 (UniProt Q8IWE2),inactive: -0.217
3,FAM178B (UniProt Q8IXR5),inactive: 0.155
4,FAM204A (UniProt Q9H8W3),inactive: 0.18
5,EYA3 (UniProt Q99504),inactive: 0.147
6,F2R (UniProt P25116),inactive: 0.011
7,ESF1 (UniProt Q9H501),inactive: 0.056
8,EVI5 isoform 2 (UniProt O60447),inactive: -0.066
9,FAM171A2 (UniProt A8MVW0),inactive: 0.089
10,FAM171A1 (UniProt Q5VUB5),inactive: 0.128
11,ERF (UniProt P50548),inactive: -0.052
12,FADS2 (UniProt O95864),inactive: -0.295
13,FAM107B isoform 2 (UniProt Q9H098),inactive: -0.023
14,ERI1 (UniProt Q8IV48),inactive: -0.016

# Compound: CN(C)CC(=O)Nc1ccc2[nH]c(=O)c3ccccc3c2c1
# Assay: as above
# Method in brief: as §1
row,Target,log2 fold change
1,EPS15L1 (UniProt M0QY01),inactive: -0.029
2,FADS1 (UniProt F5GYH4),inactive: 0.026
3,FAM135A (UniProt Q9P2D6),inactive: 0.079
4,FAM204A (UniProt Q9H8W3),inactive: -0.023
5,EYA3 (UniProt Q99504),inactive: 0.075
6,F2RL3 (UniProt Q96RI0),inactive: 0.012
7,F2R (UniProt P25116),inactive: -0.071
8,EVI2B isoform 2 (UniProt P34910),inactive: 0.012
9,EZH2 isoform 2 (UniProt Q15910),inactive: 0.022
10,EVI5 isoform 2 (UniProt O60447),inactive: 0.059
11,FAM102B (UniProt Q5T8I3),inactive: -0.038
12,FAM171A1 (UniProt Q5VUB5),inactive: -0.099
13,FAM107B isoform 2 (UniProt Q9H098),inactive: 0.007
14,F13B (UniProt P05160),inactive: -0.127
15,FAM174A (UniProt Q8TBP5),inactive: 0.051
16,ERI1 (UniProt Q8IV48),inactive: -0.128

# Compound: CN(CCOC1=CC=C(C=C1)C[C@H]2C(=O)NC(=O)S2)C3=CC=CC=N3 (racemic) [rosiglitazone]
# Assay: as above
# Method in brief: as §1
row,Target,log2 fold change
1,ESF1 (UniProt Q9H501),inactive: 0.332
2,EPS8L1 (UniProt Q8TE68),inactive: -0.066
3,EPN1 isoform 3 (UniProt Q9Y6I3),inactive: 0.062

# Reference: the supplement of paper PMC10849652
